In paper doi:10.1101/2025.03.27.645700 one finds binding data, which are given here for 2 molecules.

For test [1], the target named is T1, HsFuzzy (human) (UniProt Q9BT04).
T1 sequence: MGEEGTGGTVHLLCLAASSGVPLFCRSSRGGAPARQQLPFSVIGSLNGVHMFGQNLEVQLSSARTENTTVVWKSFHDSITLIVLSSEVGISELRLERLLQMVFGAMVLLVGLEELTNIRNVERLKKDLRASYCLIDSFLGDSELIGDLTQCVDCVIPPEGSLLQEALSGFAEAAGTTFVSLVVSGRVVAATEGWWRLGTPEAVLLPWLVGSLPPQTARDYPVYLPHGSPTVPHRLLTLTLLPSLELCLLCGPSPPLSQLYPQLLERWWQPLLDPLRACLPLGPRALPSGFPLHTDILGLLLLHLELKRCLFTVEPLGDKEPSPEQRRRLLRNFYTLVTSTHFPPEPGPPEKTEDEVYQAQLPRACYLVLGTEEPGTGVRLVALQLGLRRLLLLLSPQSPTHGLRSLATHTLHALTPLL
Nature of the test: cryo-EM structure.

Test [2] addresses T2, HsInturned (human) (UniProt Q9ULD6).
T2 sequence: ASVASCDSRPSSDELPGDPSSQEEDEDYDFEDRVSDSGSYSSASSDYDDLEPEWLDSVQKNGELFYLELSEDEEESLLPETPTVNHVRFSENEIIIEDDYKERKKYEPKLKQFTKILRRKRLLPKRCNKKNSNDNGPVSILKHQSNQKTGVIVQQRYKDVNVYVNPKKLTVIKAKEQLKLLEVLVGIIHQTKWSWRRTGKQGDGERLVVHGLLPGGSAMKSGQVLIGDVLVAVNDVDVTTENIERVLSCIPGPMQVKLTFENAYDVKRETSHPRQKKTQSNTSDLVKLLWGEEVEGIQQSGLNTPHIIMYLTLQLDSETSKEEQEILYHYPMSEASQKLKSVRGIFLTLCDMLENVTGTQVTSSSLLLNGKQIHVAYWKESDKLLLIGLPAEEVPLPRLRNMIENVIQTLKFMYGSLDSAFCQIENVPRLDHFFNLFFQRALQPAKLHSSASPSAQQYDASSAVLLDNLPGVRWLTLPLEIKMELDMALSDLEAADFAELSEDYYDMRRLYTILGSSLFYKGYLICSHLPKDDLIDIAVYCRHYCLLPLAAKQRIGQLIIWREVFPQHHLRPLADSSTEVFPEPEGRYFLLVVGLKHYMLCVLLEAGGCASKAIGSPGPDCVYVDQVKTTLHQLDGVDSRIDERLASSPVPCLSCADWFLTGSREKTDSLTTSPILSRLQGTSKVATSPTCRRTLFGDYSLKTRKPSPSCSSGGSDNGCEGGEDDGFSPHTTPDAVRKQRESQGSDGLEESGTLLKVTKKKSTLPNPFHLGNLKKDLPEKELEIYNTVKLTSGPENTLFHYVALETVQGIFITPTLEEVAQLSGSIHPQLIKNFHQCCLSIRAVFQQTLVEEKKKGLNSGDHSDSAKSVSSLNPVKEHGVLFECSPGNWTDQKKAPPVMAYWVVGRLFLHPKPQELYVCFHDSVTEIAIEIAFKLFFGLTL
As to the kind of experiment: cryo-EM structure.

Results are given in words; binding and its absence hold for the method and conditions named. Some results given as binding are weak or reduced against the parent protein; the word gives no strength.

B1: HsRab23^N121I (protein, UniProt Q9ULC3 1-237)
chain: MLEEDMEVAIKMVVVGNGAVGKSSMIQRYCKGIFTKDYKKTIGVDFLERQIQVNDEDVRLMLWDTAGQEEFDAITKAYYRGAQACVLVFSTTDRESFEAVSSWREKVVAEVGDIPTVLVQIKIDLLDDSCIKNEEAEALAKRLKLRFYRTSVKEDLNVNEVFKYLAEKYLQKLKQQIAEDPELTHSSSNKIGVFNTSGGSHSGQNSGTLNGGDVINLRPNKQRTKKNRNPFSSCSIP
On to B1, for which the binding entry in test [1] and in test [2] was “binds” each time.

B2: HsFuzzy (protein, UniProt Q9BT04 1-418)
chain: MGEEGTGGTVHLLCLAASSGVPLFCRSSRGGAPARQQLPFSVIGSLNGVHMFGQNLEVQLSSARTENTTVVWKSFHDSITLIVLSSEVGISELRLERLLQMVFGAMVLLVGLEELTNIRNVERLKKDLRASYCLIDSFLGDSELIGDLTQCVDCVIPPEGSLLQEALSGFAEAAGTTFVSLVVSGRVVAATEGWWRLGTPEAVLLPWLVGSLPPQTARDYPVYLPHGSPTVPHRLLTLTLLPSLELCLLCGPSPPLSQLYPQLLERWWQPLLDPLRACLPLGPRALPSGFPLHTDILGLLLLHLELKRCLFTVEPLGDKEPSPEQRRRLLRNFYTLVTSTHFPPEPGPPEKTEDEVYQAQLPRACYLVLGTEEPGTGVRLVALQLGLRRLLLLLSPQSPTHGLRSLATHTLHALTPLL
On to B2, for which the binding entry in test [2] is listed as “binds”.
